In this test the target is YtfK (bacterial two-hybrid fusion) (E. coli) (UniProt P0ADE2). The test is described as follows: two-hybrid; bacterial two-hybrid (T18 and T25 fragments of B. pertussis adenylate cyclase, pUT18c and pKT25) in cya-deficient E. coli BTH101, 30 °C; X-Gal plates with IPTG and β-galactosidase assay.

No constants are given. Whether binding was seen depends on the method and setting. Some binding calls cover weakened binding; strength is not graded here.

Regarding “SpoT (bacterial two-hybrid fusion) (from UniProt P0AG24 1-702)”, the binding entry is given as “binds”.

Source of the values: paper PMC6917717.
